Results reported in PubChem BioAssay AID248 (DTP/NCI, 2004).
The list does not hold the whole screen: it gathers tests that were run many times, whatever their T/C, doses with no T/C, and many T/C values between a quarter and a half above the control. Further doses and runs are listed elsewhere. T/C: endpoint of the treated group in % of that of the vehicle group. Some entries give survivors of the animals treated and no T/C: the source holds a T/C of zero for them, seemingly a mark for toxic or unscored doses. Some doses without a T/C left all or most animals alive at the check, yet need not have been tolerated: the source hardly ever lists a survival T/C far under the control, and the zero likely stands for such cases as well. Survivors were counted at the toxicity check, usually on the fifth day, unless a day is given; later deaths do not show. Schedule codes are those of the source, read here as Q, the interval in days (D) or hours (H), X, the number of doses. For survival time, this PubChem deposit counts one and a half times the control or more as active, and values a quarter to a half above the control carry no call in these data; other NCI protocols may use other cut-offs. Some entries hold several experiments; the values are given in rising order. Some T/C values carry the count of animals alive at the toxicity check (mostly the fifth day); without a count, all were alive then.

Tested on: L1210 leukemia ip in BDF1 mice, survival T/C
Test: NCI In Vivo Anticancer Drug Screen. Data for tumor model L1210 Leukemia (intraperitoneal) in B6D2F1 (BDF1) mice
Settings: higher T/C = longer survival

SMILES: O=C1C=CN(C2OC(CO)C(O)C2O)C(=O)C1 (configuration not stated)
- T/C (T/C endpoint: mean survival time, dose: 225.0 mg/kg/injection, schedule: Q01DX009 (ip), vehicle: saline, evaluated on day 60): 132 % of control [9 of 10 alive]
- T/C (T/C endpoint: mean survival time, dose: 250.0 mg/kg/injection, schedule: Q01DX005 (ip), vehicle: other): 130 % of control
- T/C (T/C endpoint: mean survival time, dose: 300.0 mg/kg/injection, schedule: Q01DX009 (ip), vehicle: saline): 135 and 140 % of control
- T/C (T/C endpoint: mean survival time, dose: 400.0 mg/kg/injection, schedule: Q01DX009 (ip), vehicle: saline): 139 % of control
- T/C (T/C endpoint: median survival time, dose: 6.25 mg/kg/injection, schedule: Q01DX009 (ip), vehicle: saline): 127 % of control
- T/C (T/C endpoint: median survival time, dose: 8.0 mg/kg/injection, schedule: Q03HX024 (ip), vehicle: saline): 127 % of control
- T/C (T/C endpoint: median survival time, dose: 9.38 mg/kg/injection, schedule: Q01DX009 (ip), vehicle: saline, evaluated on day 5): 132 % of control
- T/C (T/C endpoint: median survival time, dose: 9.38 mg/kg/injection, schedule: Q01DX009 (ip), vehicle: saline, evaluated on day 30): 132 % of control
- T/C (T/C endpoint: median survival time, dose: 16.0 mg/kg/injection, schedule: Q03HX024 (ip), vehicle: saline): 128 % of control
- T/C (T/C endpoint: median survival time, dose: 17.0 mg/kg/injection, schedule: Q03HX024 (ip), vehicle: saline): 138 % of control
- T/C (T/C endpoint: median survival time, dose: 18.75 mg/kg/injection, schedule: Q01DX009 (ip), vehicle: saline, evaluated on day 5): 135 % of control
- T/C (T/C endpoint: median survival time, dose: 18.75 mg/kg/injection, schedule: Q01DX009 (ip), vehicle: saline, evaluated on day 30): 135 % of control
- T/C (T/C endpoint: median survival time, dose: 24.0 mg/kg/injection, schedule: Q01DX009 (ip), vehicle: saline): 133 % of control
- T/C (T/C endpoint: median survival time, dose: 25.0 mg/kg/injection, schedule: Q01DX009 (ip), vehicle: saline, evaluated on day 54): 127 % of control
- T/C (T/C endpoint: median survival time, dose: 25.0 mg/kg/injection, schedule: Q01DX009 (ip), vehicle: saline, evaluated on day 60): 133 % of control [7 of 8 alive]
- T/C (T/C endpoint: median survival time, dose: 32.0 mg/kg/injection, schedule: Q01DX009 (ip), vehicle: saline): 126 % of control
- T/C (T/C endpoint: median survival time, dose: 32.0 mg/kg/injection, schedule: Q03HX024 (ip), vehicle: saline): 132 % of control
- T/C (T/C endpoint: median survival time, dose: 37.0 mg/kg/injection, schedule: Q01DX009 (ip), vehicle: saline): 133 % of control
- T/C (T/C endpoint: median survival time, dose: 37.5 mg/kg/injection, schedule: Q01DX009 (ip), vehicle: saline, evaluated on day 5): 132 % of control
- T/C (T/C endpoint: median survival time, dose: 37.5 mg/kg/injection, schedule: Q01DX009 (ip), vehicle: saline, evaluated on day 30): 132 % of control
- T/C (T/C endpoint: median survival time, dose: 39.0 mg/kg/injection, schedule: Q03HX024 (ip), vehicle: saline): 144 % of control
- T/C (T/C endpoint: median survival time, dose: 48.0 mg/kg/injection, schedule: Q01DX009 (oral), vehicle: saline): 144 % of control
- T/C (T/C endpoint: median survival time, dose: 50.0 mg/kg/injection, schedule: Q01DX009 (ip), vehicle: saline, evaluated on day 54): 133 % of control
- T/C (T/C endpoint: median survival time, dose: 50.0 mg/kg/injection, schedule: Q01DX009 (ip), vehicle: saline, evaluated on day 60): 138 % of control
- T/C (T/C endpoint: median survival time, dose: 55.0 mg/kg/injection, schedule: Q01DX009 (ip), vehicle: saline): 144 % of control
- T/C (T/C endpoint: median survival time, dose: 58.0 mg/kg/injection, schedule: Q03HX024 (ip), vehicle: saline): 144 % of control
- T/C (T/C endpoint: median survival time, dose: 64.0 mg/kg/injection, schedule: Q01DX009 (ip), vehicle: saline): 128 % of control
- T/C (T/C endpoint: median survival time, dose: 64.0 mg/kg/injection, schedule: Q01DX009 (oral), vehicle: saline): 132 and 135 % of control
- T/C (T/C endpoint: median survival time, dose: 64.0 mg/kg/injection, schedule: Q03HX024 (ip), vehicle: saline): 135 % of control
- T/C (T/C endpoint: median survival time, dose: 75.0 mg/kg/injection, schedule: Q01DX009 (ip), vehicle: saline, evaluated on day 5): 135 % of control
- T/C (T/C endpoint: median survival time, dose: 75.0 mg/kg/injection, schedule: Q01DX009 (ip), vehicle: saline, evaluated on day 30): 135 % of control [7 of 8 alive]
- T/C (T/C endpoint: median survival time, dose: 82.0 mg/kg/injection, schedule: Q01DX009 (ip), vehicle: saline): 144 % of control
- T/C (T/C endpoint: median survival time, dose: 88.0 mg/kg/injection, schedule: Q03HX024 (ip), vehicle: saline): 144 % of control
- T/C (T/C endpoint: median survival time, dose: 100.0 mg/kg/injection, schedule: Q01DX009 (ip), vehicle: saline, evaluated on day 54): 144 % of control
- T/C (T/C endpoint: median survival time, dose: 100.0 mg/kg/injection, schedule: Q01DX009 (ip), vehicle: saline, evaluated on day 60): 144 % of control
- T/C (T/C endpoint: median survival time, dose: 124.0 mg/kg/injection, schedule: Q01DX009 (ip), vehicle: saline): 144 % of control
- T/C (T/C endpoint: median survival time, dose: 128.0 mg/kg/injection, schedule: Q01DX009 (oral), vehicle: saline): 135 % of control
- T/C (T/C endpoint: median survival time, dose: 128.0 mg/kg/injection, schedule: Q01DX009 (sc), vehicle: saline): 134 % of control
- T/C (T/C endpoint: median survival time, dose: 128.0 mg/kg/injection, schedule: Q03HX024 (ip), vehicle: saline): 134 % of control
- T/C (T/C endpoint: median survival time, dose: 150.0 mg/kg/injection, schedule: Q01DX009 (ip), vehicle: saline, evaluated on day 5): 145 % of control
- T/C (T/C endpoint: median survival time, dose: 150.0 mg/kg/injection, schedule: Q01DX009 (ip), vehicle: saline, evaluated on day 30): 145 % of control
- T/C (T/C endpoint: median survival time, dose: 200.0 mg/kg/injection, schedule: Q01DX009 (ip), vehicle: saline, evaluated on day 54): 144 % of control
- T/C (T/C endpoint: median survival time, dose: 200.0 mg/kg/injection, schedule: Q01DX009 (ip), vehicle: saline, evaluated on day 60): 144 % of control
- T/C (T/C endpoint: median survival time, dose: 256.0 mg/kg/injection, schedule: Q01DX009 (sc), vehicle: saline): 133 % of control
- T/C (T/C endpoint: median survival time, dose: 300.0 mg/kg/injection, schedule: Q01DX009 (ip), vehicle: saline, evaluated on day 5): 148 % of control
- T/C (T/C endpoint: median survival time, dose: 300.0 mg/kg/injection, schedule: Q01DX009 (ip), vehicle: saline, evaluated on day 30): 148 % of control
- T/C (T/C endpoint: median survival time, dose: 390.0 mg/kg/injection, schedule: Q04DX003 (ip), vehicle: saline): 133 % of control
- T/C (T/C endpoint: median survival time, dose: 400.0 mg/kg/injection, schedule: Q01DX009 (ip), vehicle: saline): 144 % of control
- T/C (T/C endpoint: median survival time, dose: 512.0 mg/kg/injection, schedule: Q01DX009 (ip), vehicle: saline): 132 % of control
- T/C (T/C endpoint: median survival time, dose: 512.0 mg/kg/injection, schedule: Q01DX009 (sc), vehicle: saline): 131 % of control
- T/C (T/C endpoint: median survival time, dose: 512.0 mg/kg/injection, schedule: Q04DX003 (oral), vehicle: saline): 132 % of control
- T/C (T/C endpoint: median survival time, dose: 880.0 mg/kg/injection, schedule: Q04DX003 (ip), vehicle: saline): 127 % of control
- survivor count (T/C endpoint: median survival time, dose: 1024.0 mg/kg/injection, schedule: Q01DX009 (oral), vehicle: saline): 9 of 10
- T/C (T/C endpoint: median survival time, dose: 1024.0 mg/kg/injection, schedule: Q04DX003 (ip), vehicle: saline): 132 % of control
- T/C (T/C endpoint: median survival time, dose: 1024.0 mg/kg/injection, schedule: Q04DX003 (oral), vehicle: saline): 129 and 130 % of control
- T/C (T/C endpoint: median survival time, dose: 1024.0 mg/kg/injection, schedule: Q04DX003 (sc), vehicle: saline): 125 % of control
- T/C (T/C endpoint: median survival time, dose: 2048.0 mg/kg/injection, schedule: Q04DX003 (oral), vehicle: saline): 131 and 135 % of control
